The source of these data is paper doi:10.1101/697953.

Test in all cases: two-hybrid
Experiment [1] deals with N-terminal region of FtsK lacking its ATPase domain (Chlamydia (printed: chlamydial)).
The target of experiment [2] is chlamydial RodZ (Chlamydia (printed: chlamydial)).
The target in experiment [3] is full-length chlamydial FtsK (Chlamydia (printed: chlamydial)).

No constants are given. Whether binding was seen depends on the method and setting. Binding calls can cover weak binding; strength is not graded here.

B1: full-length chlamydial MreB (protein, UniProt O84715 1-366)
chain: MSPYRSLYKIKHLSNRLYNKALGRFDRVFNFFSGNVGIDLGTANTLVYVRGRGIVLSEPSVVAVDAQTHAVLAVGHKAKAMLGKTPRKIVAVRPMKDGVIADFEIAEGMLKALIKRVTPARSMFRPKILIAVPSGITGVEKRAVEDSALHAGAQEVILIEEPMAAAIGVDLPVHEPAASMIIDIGGGTTEIAIISLGGIVESRSLRIAGDEFDECIINYMRRTYNLMIGPRTAEEIKITIGSAYPLGDQELEMEVRGRDQVAGLPITKRINSVEIRECLAEPIQQIIECVRLTLEKCPPELSADLVERGMVLAGGGALIKGLDKALSKNTGLSVITAPHPLLAVCLGTGKALEHLDQLKKRKESLV
Turning to B1, the binding result in experiment [1], in experiment [2] and in experiment [3] was “binds” in each case.

B2: ΔN22 chlamydial MreB (domain or fragment, UniProt O84715 23-366)
chain: GRFDRVFNFFSGNVGIDLGTANTLVYVRGRGIVLSEPSVVAVDAQTHAVLAVGHKAKAMLGKTPRKIVAVRPMKDGVIADFEIAEGMLKALIKRVTPARSMFRPKILIAVPSGITGVEKRAVEDSALHAGAQEVILIEEPMAAAIGVDLPVHEPAASMIIDIGGGTTEIAIISLGGIVESRSLRIAGDEFDECIINYMRRTYNLMIGPRTAEEIKITIGSAYPLGDQELEMEVRGRDQVAGLPITKRINSVEIRECLAEPIQQIIECVRLTLEKCPPELSADLVERGMVLAGGGALIKGLDKALSKNTGLSVITAPHPLLAVCLGTGKALEHLDQLKKRKESLV
For the molecule B2, the binding result in experiment [1], in experiment [2] and in experiment [3] was “no binding” throughout.
